This note sets out measurements from the supplement of paper PMC10727501.

The list shows a part of the results. Repeats in this data set agree poorly, so a single value says little.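 Free-swimming zebrafish larvae were assessed for O-bend response probability to dark flashes (naive: first five; training: remaining flashes across four 60-flash blocks; test: later 60-flash block) and for OMR turning toward alternating leftward/rightward LED motion. Six treated larvae were compared against sixty 0.1% DMSO controls; hits required |SSMD|≥2.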

In this test the test system is Danio rerio larvae (5 dpf, TLF). Nature of the test: Prob-Train (SSMD vs DMSO vehicle); higher = higher than vehicle (e.g. higher dark-flash O-bend response probability, or better optomotor performance). As to conditions: 10 µM; pre-incubation: 30-90 min.
`CC[C@@H](C)[C@@H]1NC(=O)[C@@H](CCCN)NC(=O)[C@@H](NC(=O)[C@@H](NC(=O)[C@@H](CCC(=O)[O-])NC(=O)[C@H](CC(C)C)NC(=O)C2CN=C([C@@H](N)[C@@H](C)CC)S2)[C@H](C)CC)CCCCNC(=O)[C@H](CC(N)=O)NC(=O)[C@@H](CC(=O)[O-])NC(=O)[C@H](Cc2c[nH]cn2)NC(=O)[C@H](Cc2ccccc2)NC1=O.[Zn+2]` (stereo not given in full) [Bacitracin zinc] yielded a Prob-Train of -0.529.

Compound `CCc1cncnc1N1CCN(Cc2nc3cc(C(F)(F)F)ccc3[nH]2)CC1` yielded a Prob-Train of -0.0967.

Take `N[C@H](Cc1ccccc1)C(=O)O` [D-Phenylalanine]: the Prob-Train was 0.223.

In the case of `C[C@@H]1CC(=O)NN=C1c1ccc(NN=C(C#N)C#N)cc1` [Levosimendan], the Prob-Train was found to be 0.0272.

With `C#CCC(Cc1cnc2nc(N)nc(N)c2n1)c1ccc(C(=O)N[C@@H](CCC(=O)O)C(=O)O)cc1` (stereo not given in full) [Pralatrexate], the Prob-Train is -0.0649.

As to `O=C(O)CCc1nc2ccccc2[nH]1` [Procodazole], the Prob-Train is -0.183.

Turning to `C[C@H]1[C@H](O)O[C@H]2O[C@@]3(C)CC[C@H]4[C@@H](C)CC[C@@H]1[C@@]24OO3` [Dihydroartemisinin (DHA)], the Prob-Train was -0.247.

With `C[N+](C)(C)CCO.[Cl-]` [Choline Chloride], the Prob-Train was -0.272.

With `Cl.NC(CO)C(=O)NNCc1ccc(O)c(O)c1O` (stereo not given) [Benserazide HCl], the Prob-Train is -0.0263.

In turn, `CC(C)N(CCCNC(=O)Nc1ccc(C(C)(C)C)cc1)C[C@H]1O[C@@H](n2cc(Br)c3c(N)ncnc32)[C@H](O)[C@@H]1O` registered a Prob-Train of -0.09.

Compound `NC(N)=NCCN1CCCCCCC1.NC(N)=NCCN1CCCCCCC1.O=S(=O)(O)O` [Guanethidine Sulfate] gave a Prob-Train of -0.245.

As to `O=C(COc1ccc(C(=O)c2ccccc2)cc1)NC1CCN(Cc2ccccc2)CC1` [AdipoRon], the Prob-Train was -0.89.

In turn, `COC(=O)Nc1nc2ccc(Sc3ccccc3)cc2[nH]1` [Fenbendazole] registered a Prob-Train of 0.00741.

Compound `O=C(O)[C@H](Cc1c[nH]c2ccccc12)N1C(=O)c2ccccc2C1=O` returned a Prob-Train of -0.632.

In turn, `COc1cc2c(Oc3ccc(NC(=O)C4(C(=O)Nc5ccc(F)cc5)CC4)cc3F)ccnc2cc1OCCCN1CCOCC1` gave a Prob-Train of -1.5.

Consider `Cc1ccc([C@@H]2O[C@H](CO)[C@@H](O)[C@H](O)[C@H]2O)cc1Cc1ccc(-c2ccc(F)cc2)s1` [Canagliflozin], for which the Prob-Train was -0.492.

Consider `Cl.Cl.NC1(c2ccc(-c3nc4ccn5c(=O)[nH]nc5c4cc3-c3ccccc3)cc2)CCC1`, for which the Prob-Train is 0.471.

The compound `CNC(=O)c1cc(COc2nnc(Nc3ccc(Cl)cc3)c3ccoc23)ccn1` [Telatinib] displayed a Prob-Train of -0.24.

Compound `CCOC(=O)[C@H](CCc1ccccc1)N[C@@H](C)C(=O)N1[C@@H](C(=O)O)C[C@@H]2CCC[C@@H]21` [Ramipril] came in with a Prob-Train of 0.251.

In turn, `CN(C)CC/C=C1\c2ccccc2COc2ccc(CC(=O)O)cc21.Cl` [Olopatadine HCl] had a Prob-Train of -0.0738.

The compound `O=C([O-])[C@H](CC(=O)N1C[C@H]2CCCC[C@H]2C1)Cc1ccccc1.O=C([O-])[C@H](CC(=O)N1C[C@H]2CCCC[C@H]2C1)Cc1ccccc1.[Ca+2]` [Mitiglinide calcium] returned a Prob-Train of -0.206.

Regarding `Nc1nc(N)c2nc(-c3ccccc3)c(N)nc2n1` [Triamterene], the Prob-Train was found to be 0.335.

In turn, `CCn1c(-c2nonc2N)nc2c(C#CC(C)(C)O)ncc(OC[C@H]3CCCNC3)c21` returned a Prob-Train of -0.0394.

`O=C(O)CCc1nc(-c2ccccc2)c(-c2ccccc2)o1` [Oxaprozin] gave a Prob-Train of -2.63.

`Cc1c(OCC(F)(F)F)ccnc1CS(=O)c1nc2ccccc2[nH]1` (stereo not given) [Lansoprazole]: the Prob-Train worked out at 0.178.

Regarding `CCCC(=O)O[C@@]1(C(=O)COC(C)=O)CC[C@H]2[C@@H]3C[C@H](F)C4=CC(=O)C=C[C@]4(C)[C@]3(F)[C@H](O)C[C@@]21C` [Difluprednate], the Prob-Train was -0.128.

Consider `COc1ccc(C2=NC(c3ccc(Cl)cc3)C(c3ccc(Cl)cc3)N2C(=O)N2CCNC(=O)C2)c(OC(C)C)c1` (stereo not given) [Nutlin-3], for which the Prob-Train was -0.366.

For `COCC[n+]1c2c(n(Cc3cnccn3)c1C)C(=O)c1ccccc1C2=O` [YM155 (Sepantronium Bromide)], the Prob-Train was 0.538.

On to `CN(C)C(=O)[C@H](O)[C@H](Cc1ccccc1)NC(=O)c1cc2cc(Cl)ccc2[nH]1`, for which the Prob-Train is -0.475.

Take `CS(=O)c1ccc(-c2nc(-c3ccc(F)cc3)c(-c3ccncc3)[nH]2)cc1` (stereo not given): the Prob-Train was -0.281.

The compound `CC[N+](CC)(CC)CCOc1cccc(OCC[N+](CC)(CC)CC)c1OCC[N+](CC)(CC)CC.[I-].[I-].[I-]` [Gallamine Triethiodide] yielded a Prob-Train of -0.0534.

`CN1CCc2nc(C(=O)N[C@H]3C[C@H](C(=O)N(C)C)CC[C@@H]3NC(=O)C(=O)Nc3ccc(Cl)cn3)sc2C1` [Edoxaban] came in with a Prob-Train of -0.251.

As for `Cc1ncc(C[n+]2csc(CCO)c2C)c(N)n1.Cl.[Cl-]` [Thiamine HCl (Vitamin B1)], the Prob-Train is -0.0684.

`NC1(Cc2ccc(Cl)cc2)CCN(c2ncnc3[nH]ccc23)CC1` returned a Prob-Train of -0.483.

Take `Cc1ccc(Nc2nccc(N(C)c3ccc4c(C)n(C)nc4c3)n2)cc1S(N)(=O)=O` [Pazopanib]: the Prob-Train is -0.148.

The compound `CC(C)OC(=O)OCOP(=O)(CO[C@H](C)Cn1cnc2c(N)ncnc21)OCOC(=O)OC(C)C.O=C(O)/C=C\C(=O)O` [Tenofovir Disoproxil Fumarate] gave a Prob-Train of -0.186.

`Cl.O=S(=O)(c1cccc2cnccc12)N1CCCNCC1` [Fasudil (HA-1077) HCl]: the Prob-Train stood at 0.323.

In turn, `CC(C)c1c(C(=O)Nc2ccccc2)c(-c2ccccc2)c(-c2ccc(F)cc2)n1CC[C@@H](O)C[C@@H](O)CC(=O)[O-].CC(C)c1c(C(=O)Nc2ccccc2)c(-c2ccccc2)c(-c2ccc(F)cc2)n1CC[C@@H](O)C[C@@H](O)CC(=O)[O-].[Ca+2]` [Atorvastatin Calcium] came in with a Prob-Train of 0.0181.

On to `Cc1cc(=O)oc2cc(O)ccc12` [4-Methylumbelliferone (4-MU)], for which the Prob-Train was 0.355.

As for `C#CCN[C@H]1CCc2ccccc21.CS(=O)(=O)O` [Rasagiline Mesylate], the Prob-Train was -0.398.
